Test: TEM imaging of nanotubes diluted in human serum
Format: in vitro ADME
Conditions: 10 mM PBS diluted to 1 mM with human serum

SMILES | presence of nanotubes after 24 h
CC[C@@]1(OC(=O)CCC(=O)NCCCC[C@H](NC(=O)[C@H](CCCCN)NC(C)=O)C(N)=O)C(=O)OCc2c1cc1n(c2=O)Cc2cc3ccccc3nc2-1 [C, Ac-KK(CPT)-NH2] | nanotubes were present
CC[C@@]1(OC(=O)CCC(=O)NCCCC[C@H](NC(=O)[C@@H](N)CCCCN)C(N)=O)C(=O)OCc2c1cc1n(c2=O)Cc2cc3ccccc3nc2-1 [D, NH2—KK(CPT)-NH2] | nanotubes were present
